These are yes or no findings as the source states them, for the method shown. Where a sequence is shown, tags or fusion partners need not be part of it.
Target: T1, K10-T3 (residue G521-Y584), SUMO fusion (human) (UniProt P13645)
T1 sequence: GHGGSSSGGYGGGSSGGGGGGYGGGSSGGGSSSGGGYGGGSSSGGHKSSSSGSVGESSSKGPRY
Assay: far-Western, overlay or dot blot; keratin fragments resolved by SDS-PAGE and transferred to PVDF; membrane incubated with CysR∼CTLD3-Fc (10 μg/ml) in PBS, 5% milk, 0.1% Tween 20, pH 6.0 or pH 7.4, 2 h, room temperature; detected with HRP anti-human IgG Fcγ antibody; both purified

B1: CysR∼CTLD3-Fc of DEC205 (Fc fusion, UniProt O60449 28-627)
chain: SGRAANDPFTIVHGNTGKCIKPVYGWIVADDCDETEDKLWKWVSQHRLFHLHSQKCLGLDITKSVNELRMFSCDSSAMLWWKCEHHSLYGAARYRLALKDGHGTAISNASDVWKKGGSEESLCDQPYHEIYTRDGNSYGRPCEFPFLIDGTWHHDCILDEDHSGPWCATTLNYEYDRKWGICLKPENGCEDNWEKNEQFGSCYQFNTQTALSWKEAYVSCQNQGADLLSINSAAELTYLKEKEGIAKIFWIGLNQLYSARGWEWSDHKPLNFLNWDPDRPSAPTIGGSSCARMDAESGLWQSFSCEAQLPYVCRKPLNNTVELTDVWTYSDTRCDAGWLPNNGFCYLLVNESNSWDKAHAKCKAFSSDLISIHSLADVEVVVTKLHNEDIKEEVWIGLKNINIPTLFQWSDGTEVTLTYWDENEPNVPYNKTPNCVSYLGELGQWKVQSCEEKLKYVCKRKGEKLNDASSDKMCPPDEGWKRHGETCYKIYEDEVPFGTNCNLTITSRFEQEYLNDLMKKYDKSLRKYFWTGLRDVDSCGEYNWATVGGRRRAVTFSNWNFLEPASPGGCVAMSTGKSVGKWEVKDCRSFKALSICKKMS
binding: no binding (tested: 10 μg/ml)

Source: PMC10914487, “Interaction of human dendritic cell receptor DEC205/CD205 with keratins” (The Journal of Biological Chemistry, 2024)
